# Library screening results

Data taken from ChEMBL document CHEMBL3988442, “University of Dundee, Small-Polar-MMV Screening Library” (2021).

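Whole-cell assay for inhibitors of Mycobacterium tuberculosis growth, labelled Cornell in the record; the read-out is not stated. The concentration is filed as 10 mM, unlikely as a test dose, so the dose is not known. The record gives no direction; compounds strong in two other growth screens of this library score well above the rest, so higher reads as stronger inhibition. Size under these conditions: about 53,000 compounds, about 900 of them at 50% or above in at least one test.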

Each number is a percent effect as filed. How 0% and 100% were set is not recorded. Most values in the screen are low, and negative values occur. Compounds were drawn at random from those tested, without regard to their results.

CNC(=O)C1CN(c2ccc(F)cc2)CCN1.Cl (configuration not stated) gave 14.97%. Cl.[H][C@@]12CNC[C@]1([H])CN(C(=O)C1CCCCC1)C2 read 18.52%. Cc1cnn(CC2CCCN2C(=O)CCc2c(C)noc2Cl)c1 (configuration not stated) gave 16.45%. Cc1cc(C(=O)N2CCCC(c3nccn3C)C2)cc(S(N)(=O)=O)c1C (configuration not stated) read 6.851%. Result for Nc1nc2c(c(NCC(c3cccnc3)N3CCOCC3)n1)CCCC2 (configuration not stated) was -25.44%.

CC1(C)Cc2nc(C(C)(C)C)ncc2C(NC(=O)C2(N)CC2)C1 (configuration not stated) gave -31.73%. With [H][C@@]12CCN(Cc3nccs3)C[C@]1(c1nnc(C)o1)CCO2 the screen gave 5.418%. Cc1cc(C2CCCN(C(=O)COc3ccc(F)cc3)C2)n[nH]1 (configuration not stated) read 21.79%. COCCn1ccnc1CN(Cc1ccccn1)CC(C)C gave 1.93%. CC(C)C(C)N(C)Cc1nnc(-c2ccc(Br)s2)o1 (configuration not stated) gave 31.73%.

With Cc1ccc(-n2nnc(C(=O)O)c2C)c(C)c1 the screen gave 2.275%. O=S(=O)(N1CCOCC1)N1CCc2sccc2C1 read 24.6%. [H][C@@]12COC[C@@H](C(=O)NC)[C@]1([H])CN(C(=O)c1ccc(C)c(F)c1)C2 read 6.08%. CCOc1ccnc(N2CCN(C(=O)CCc3cnn(C)c3)CC2)n1 read 11.27%. O=c1[nH]cccc1-c1nccc(C2(c3ccccc3Cl)CCNCC2)n1 gave -41.82%.

For COCC(=O)N1CCCC(C(=O)NCc2cc(CC(C)C)on2)C1 (configuration not stated) the result was -7.749%. For O=C(O)C(F)(F)F.O=C1CCCN1Cc1ncn2c1CN(Cc1cccs1)CCC2 the result was 21.45%. For CN1C(=O)CC[C@]12CC[C@@H](NC(=O)NCc1cccnc1)CC2.O=C(O)C(F)(F)F the result was 4.922%. Result for CN(C)CC1CSCCCN1C(=O)c1ccc(=O)[nH]c1 (configuration not stated) was -6.49%. Result for Fc1cnc(N2CC3(CCN(CC4CC4)C3)C2)nc1.O=C(O)C(F)(F)F was 14.64%.

Repeated from the top, 2 entries:

Compound	effect
CNC(=O)C1CN(c2ccc(F)cc2)CCN1.Cl (configuration not stated)	14.97%
Cl.[H][C@@]12CNC[C@]1([H])CN(C(=O)C1CCCCC1)C2	18.52%